In PMC2809763:
Results are given in words; binding and its absence hold for the method and conditions named. Binding seen in cells or lysates may run through a third protein. A result given as binding can be weak or reduced; the word gives no strength. Sequences can lack the tags named with a protein. Blank lines part the entries; values can stand above or below the molecule they belong to.

The chains behind the UniProt entries cited, without tags or fusion partners. Where a name states a change or a piece, a line headed by the entry shows the natural chain unless it says otherwise.
UniProt Q9N595: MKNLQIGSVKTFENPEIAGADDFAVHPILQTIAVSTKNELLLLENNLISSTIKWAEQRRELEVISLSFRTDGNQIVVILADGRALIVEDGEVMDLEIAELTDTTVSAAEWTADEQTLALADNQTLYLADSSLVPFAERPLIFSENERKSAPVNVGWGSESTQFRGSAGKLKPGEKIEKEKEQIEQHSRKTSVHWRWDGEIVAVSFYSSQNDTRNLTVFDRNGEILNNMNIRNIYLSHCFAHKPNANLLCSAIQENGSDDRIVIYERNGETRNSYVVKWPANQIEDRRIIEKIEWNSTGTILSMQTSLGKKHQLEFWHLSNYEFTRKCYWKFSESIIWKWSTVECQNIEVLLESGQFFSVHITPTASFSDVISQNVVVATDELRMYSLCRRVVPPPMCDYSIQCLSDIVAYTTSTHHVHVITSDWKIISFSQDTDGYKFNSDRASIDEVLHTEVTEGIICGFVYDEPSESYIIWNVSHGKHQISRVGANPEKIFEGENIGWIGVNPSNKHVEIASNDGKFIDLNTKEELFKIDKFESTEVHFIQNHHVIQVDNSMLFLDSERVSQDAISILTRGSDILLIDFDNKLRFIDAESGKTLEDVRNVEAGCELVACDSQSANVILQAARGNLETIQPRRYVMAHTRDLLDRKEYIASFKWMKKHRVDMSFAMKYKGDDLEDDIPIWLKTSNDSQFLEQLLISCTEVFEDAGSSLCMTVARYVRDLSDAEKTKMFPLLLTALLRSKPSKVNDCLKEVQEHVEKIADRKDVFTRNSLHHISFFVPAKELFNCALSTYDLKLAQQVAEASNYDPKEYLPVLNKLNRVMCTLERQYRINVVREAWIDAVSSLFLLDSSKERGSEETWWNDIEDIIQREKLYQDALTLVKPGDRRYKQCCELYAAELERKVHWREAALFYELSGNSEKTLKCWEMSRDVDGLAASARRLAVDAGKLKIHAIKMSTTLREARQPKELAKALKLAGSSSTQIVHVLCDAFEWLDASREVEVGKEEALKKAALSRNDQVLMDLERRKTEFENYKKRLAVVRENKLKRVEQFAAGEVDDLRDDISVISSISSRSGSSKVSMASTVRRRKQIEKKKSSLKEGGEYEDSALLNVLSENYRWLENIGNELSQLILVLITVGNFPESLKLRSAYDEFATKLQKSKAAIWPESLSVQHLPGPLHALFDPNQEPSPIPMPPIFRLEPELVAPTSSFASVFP

What was measured:
ELPC-3::GFP (C. elegans) = molecular target: T1, ELPC-3::GFP (C. elegans) (UniProt Q23651); assay: co-IP; reciprocal: worm lysates in HNNG buffer, 4°C; immunoprecipitation with anti-GFP, blot with anti-ELPC-1
T1 sequence: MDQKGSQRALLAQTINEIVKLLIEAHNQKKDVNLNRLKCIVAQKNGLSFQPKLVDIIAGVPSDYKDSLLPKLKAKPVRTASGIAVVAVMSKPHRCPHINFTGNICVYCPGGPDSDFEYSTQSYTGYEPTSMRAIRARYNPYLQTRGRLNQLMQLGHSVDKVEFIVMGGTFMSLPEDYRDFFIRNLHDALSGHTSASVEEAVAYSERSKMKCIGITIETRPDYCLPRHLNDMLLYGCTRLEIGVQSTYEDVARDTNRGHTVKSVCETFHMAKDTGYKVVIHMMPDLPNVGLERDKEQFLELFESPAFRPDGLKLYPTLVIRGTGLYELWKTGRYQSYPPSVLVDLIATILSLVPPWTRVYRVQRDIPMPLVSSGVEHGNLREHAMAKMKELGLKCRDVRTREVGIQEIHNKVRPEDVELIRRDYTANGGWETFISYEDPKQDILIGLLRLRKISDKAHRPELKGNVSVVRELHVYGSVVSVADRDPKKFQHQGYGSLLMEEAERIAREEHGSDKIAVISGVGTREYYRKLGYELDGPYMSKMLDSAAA

[1] = molecular target: α-tubulin (endogenous) (C. elegans (endogenous in worms)); assay: co-IP; worm lysates in HNNG buffer, 4°C; α-tubulin immunoprecipitated with anti-α-tubulin, blot with anti-ELPC-1 or anti-GFP; backgrounds: wt, elpc-3 deleted, elpc-1(ng10) expressing ELPC-1::GFP variants, elpc-3(tm3120) expressing ELPC-3::GFP

- binding (ELPC-3::GFP (C. elegans)): binds
Molecule: ELPC-1 (endogenous) (from UniProt Q9N595)

- binding [1]: binds
B1: ELPC-3::GFP (protein, UniProt Q23651 1-547)
chain: T1 sequence
